No constants are given. Whether binding was seen depends on the method and setting. Binding seen in cells or lysates may run through a third protein. For part of these data: A result given as binding can be weak or reduced; the word gives no strength. For part of these data: Tags and fused reporters may be left off the sequences shown.
Tests used:
[1] = target: FLAG-G3BP1 (human, wild type) (human) (UniProt Q13283); test: co-IP; FLAG immunoprecipitation from lysates of co-transfected 293T cells with RNase Cocktail added to the immunoprecipitation mixture at 1:100; 1x RIPA buffer, 4 °C, 2 h
[2] = target: FLAG-G3BP1 (human, wild type) (human) (UniProt Q13283); test: co-IP; FLAG immunoprecipitation (anti-FLAG M2 affinity gel, elution with 3xFLAG peptide) from lysates of co-transfected cells; 1x RIPA buffer, 4 °C, 2 h; no RNase; western blot
FLAG-MATR3 = target: T1, FLAG-MATR3 (UniProt P43243); test: as above
T1 sequence: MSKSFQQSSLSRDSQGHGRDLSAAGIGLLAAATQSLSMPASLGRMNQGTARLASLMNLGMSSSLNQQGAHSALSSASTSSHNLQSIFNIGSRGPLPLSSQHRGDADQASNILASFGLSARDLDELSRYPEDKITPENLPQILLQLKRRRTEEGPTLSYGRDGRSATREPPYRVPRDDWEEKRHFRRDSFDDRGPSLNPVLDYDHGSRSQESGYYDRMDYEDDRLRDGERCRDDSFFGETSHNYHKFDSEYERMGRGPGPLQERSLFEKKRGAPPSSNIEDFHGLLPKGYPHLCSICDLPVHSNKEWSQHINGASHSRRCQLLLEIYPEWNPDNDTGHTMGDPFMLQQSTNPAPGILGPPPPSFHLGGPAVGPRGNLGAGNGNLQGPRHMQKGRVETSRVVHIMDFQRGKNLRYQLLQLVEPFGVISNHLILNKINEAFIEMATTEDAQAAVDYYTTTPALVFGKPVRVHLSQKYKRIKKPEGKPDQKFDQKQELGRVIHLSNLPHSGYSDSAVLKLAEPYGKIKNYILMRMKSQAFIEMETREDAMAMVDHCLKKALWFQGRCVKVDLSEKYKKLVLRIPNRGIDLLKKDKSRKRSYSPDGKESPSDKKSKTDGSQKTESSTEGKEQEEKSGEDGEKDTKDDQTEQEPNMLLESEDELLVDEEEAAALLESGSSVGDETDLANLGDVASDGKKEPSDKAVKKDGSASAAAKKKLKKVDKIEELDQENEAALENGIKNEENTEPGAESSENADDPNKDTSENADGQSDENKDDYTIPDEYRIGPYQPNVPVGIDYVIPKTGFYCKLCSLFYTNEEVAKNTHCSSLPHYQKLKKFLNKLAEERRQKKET

Amino acid sequences for entries named in this document (tags omitted). A change or cut given only in a name is not applied to a line headed by its entry.
UniProt Q13283: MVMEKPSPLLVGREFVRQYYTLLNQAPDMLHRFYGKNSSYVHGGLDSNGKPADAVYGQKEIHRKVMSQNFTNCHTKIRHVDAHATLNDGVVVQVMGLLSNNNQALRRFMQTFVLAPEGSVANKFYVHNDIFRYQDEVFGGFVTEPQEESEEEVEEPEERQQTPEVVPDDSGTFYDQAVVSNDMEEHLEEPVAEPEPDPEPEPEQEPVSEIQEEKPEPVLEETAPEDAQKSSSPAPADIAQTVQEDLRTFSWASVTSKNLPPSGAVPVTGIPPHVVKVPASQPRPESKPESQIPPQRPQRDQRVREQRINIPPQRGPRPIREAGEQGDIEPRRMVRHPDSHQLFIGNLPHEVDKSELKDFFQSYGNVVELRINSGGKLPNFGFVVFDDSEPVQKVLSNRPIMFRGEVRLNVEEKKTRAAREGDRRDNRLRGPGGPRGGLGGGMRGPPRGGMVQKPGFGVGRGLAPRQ
UniProt P00441: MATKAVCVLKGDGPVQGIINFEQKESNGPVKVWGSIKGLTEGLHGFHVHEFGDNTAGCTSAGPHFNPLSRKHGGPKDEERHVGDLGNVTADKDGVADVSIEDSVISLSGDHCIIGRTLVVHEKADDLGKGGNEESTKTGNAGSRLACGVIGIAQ

Substance: Mutant SOD1 of the RNase experiment (from UniProt P00441)
- binding [1]: binds
- binding [2]: binds

Substance: A4V mutant SOD1-3xHA (human)
- binding (FLAG-MATR3): no binding

From article PMC5023729
